According to patent US12286402B2, “Compounds and their use for the treatment of alpha1-antitrypsin deficiency” (CENTESSA PHARMACEUTICALS (UK) LIMITED, priority 2019, dated 2025):
Some of these results come from one statement about several compounds together.

Chains of the proteins cited; added tags and fusions are not shown. Residues count along the entry.
UniProt P01009, 25-418 E366K: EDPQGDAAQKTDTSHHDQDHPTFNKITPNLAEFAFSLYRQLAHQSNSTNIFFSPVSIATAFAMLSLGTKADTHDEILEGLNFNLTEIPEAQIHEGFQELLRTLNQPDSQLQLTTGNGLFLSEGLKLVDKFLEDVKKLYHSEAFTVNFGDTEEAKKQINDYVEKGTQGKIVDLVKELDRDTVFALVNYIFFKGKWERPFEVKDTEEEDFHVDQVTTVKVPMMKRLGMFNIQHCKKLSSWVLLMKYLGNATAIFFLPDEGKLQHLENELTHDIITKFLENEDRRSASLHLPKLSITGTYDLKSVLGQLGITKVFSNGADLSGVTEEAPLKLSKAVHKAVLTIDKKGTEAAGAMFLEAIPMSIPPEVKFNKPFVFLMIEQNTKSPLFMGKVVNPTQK

Target: T1, human Z A1AT (Homo sapiens, UniProt P01009, E366K)
T1 construct: expressed in transfected cells; host or cells: HEK-Z cells (human embryonic kidney cell line stably transfected with the human Z A1AT gene)
Test: A1AT cell secretion assay using HEK-Z cells (A1AT ELISA of supernatants)
Type: cell-based
Details: at 33 nM
Experimental: HEK-Z cells, a human embryonic kidney cell line stably transfected with the human Z A1AT gene, were plated into 96 well plates (3.0×10^5 cells/ml with 200 μl of media/well) overnight at 37° C. in a humidified atmosphere containing 5% CO2. Following incubation cells were washed with 200 μl serum-free media three times and media was replaced with treatments in quadruplicate using serum free media containing either vehicle, 10 μM suberanilohydroxamic acid (SAHA) or a compound of the invention (at concentrations of 10, 33, 100 and 333 nM) for 48 h in a 37° C. incubator in a final volume of 200 μl. At the end of the incubation step the supernatants were removed from the wells, centrifuged at 1000×g at 4° C. for 10 min and were assayed for human A1AT levels by ELISA (Human Serpin A1/α1-antitrypsin duo set ELISA, R& D Systems, DY1268) per manufacturer's instructions.
Briefly, a 96 well plate was coated with human A1AT capture antibody overnight at room temperature (1:180 dilution from stock, 100 μl final volume/well). The capture antibody was then removed and wells washed three times with 300 μl wash buffer (0.05% Tween 20 in PBS) and then 200 μl reagent diluent ([…]) was incubated in each well for 1 h at room temperature. Diluted samples, standards (125, 250, 500, 1000, 2000, 4000 and 8000 pg/ml A1AT) or blanks were then added to each well in duplicate and the plates were covered with a plate sealer and left at room temperature for 2 h. At the end of the sample incubation step, samples were removed and all wells washed as previously and 100 μl detection antibody (1:180 dilution from stock) was added to each well and incubated for a further 2 h at room temperature. Following incubation with detection antibody, supernatant was removed and wells were washed as previously and 100 μl streptavidin-HRP solution (1:200 dilution from stock) was added to each well for 20 min in the dark. After which, 50 μl stop solution (2M H2SO4) was added and optical density (OD) of each well was read at 450 nm with 570 nm blank subtracted from each well using a microplate reader. A 4 parameter logistic curve was constructed using GraphPad Prism 7 and A1AT concentrations were determined in each sample by interpolation from a standard curve and multiplying by the appropriate dilution factor.

secretion of Z A1AT from HEK-Z cells | SMILES
increase secretion | CN(C)C(=O)c1ccc(Cn2ccccc2=O)cc1 [Example 1, N,N-dimethyl-4-((2-oxopyridin-1(2H)-yl)methyl)benzamide]
increase secretion | CCN(C)C(=O)c1ccc(Cn2ccccc2=O)cc1 [Example 2, N-ethyl-N-methyl-4-((2-oxopyridin-1(2H)-yl)methyl)benzamide]
increase secretion | CN(Cc1ccccc1)C(=O)c1ccc(Cn2ccccc2=O)cc1 [Example 4, N-benzyl-N-methyl-4-((2-oxopyridin-1(2H)-yl)methyl)benzamide]
increase secretion | CC(C)N(C)C(=O)c1ccc(Cn2ccccc2=O)cc1 [Example 3, N-isopropyl-N-methyl-4-((2-oxopyridin-1(2H)-yl)methyl)benzamide]
increase secretion | CN(CC(F)(F)F)C(=O)c1ccc(Cn2ccccc2=O)cc1 [Example 5, N-methyl-4-((2-oxopyridin-1(2H)-yl)methyl)-N-(2,2,2-trifluoroethyl)benzamide]
